Experimental data taken from PubChem BioAssay AID493014 (National Center for Advancing Translational Sciences (NCATS), 2011).
Some of the results follow. Further columns of the screen follow, without active or inactive calls. Most of these compounds were active or inconclusive in the main read-out, so they are no random draw. The note in brackets gives the kind of curve behind each potency; many fits are weak.

Experiment: qHTS Assay to Find Inhibitors of Chronic Active B-Cell Receptor Signaling
Details: ABC-DLBCL IkBa-CBG/CBR reporter, luminescence ratio (green luciferase fused to IkBa over red control in TMD8 lymphoma cells), 4 h
How it was run: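 Compounds up to 46 uM were incubated four hours with TMD8 cells whose green CBG68 luciferase is fused to IkappaBalpha; red CBR luminescence normalised the signal, and concentration-effect curves were fitted to fusion, red and ratio data.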

[1] = measured here: CBR red luminescence, cell number
[2] = measured here: IkBa-CBG green luminescence

Structure (SMILES)	AC50 [1]	AC50 [2]
S=C(Nc1cccc(Cl)c1)N1CCOCC1	16.4 µM [rising, partial curve, poor fit]	
Nc1nonc1-n1nnc(C(=O)N/N=C/c2cccs2)c1CSc1ccccc1	7.08 µM [falling, partial curve, poor fit]	
Cc1ccc(S(=O)(=O)/C(C#N)=C/c2c(N3CCC(C(N)=O)CC3)nc3ccccn3c2=O)cc1	2.91 µM [falling, partial curve, poor fit]	
O=C(O)CCC(=O)N1CCN(c2nc(-c3ccccc3Cl)c3cc(Br)ccc3n2)CC1	1.78 µM [falling, partial curve, poor fit]	
Cc1cccc2nc(COc3ccc(-c4ccccc4)cc3)cn12	35.5 µM [rising, single point]	
NC(=O)c1ccccc1OCCOc1ccc(Br)cc1	11.2 µM [falling, partial curve, poor fit]	
C/C(=N\NC(=O)c1ccccc1)c1ccccc1F	8.91 µM [falling, partial curve]	
O=C(NC1CCCC1)C(c1ccncc1)N(Cc1ccccc1)C(=O)c1ccc(-c2ccccc2)[nH]1 (centres undefined)	29.1 µM [falling, single point]	
CCOC(=O)Cc1csc(NC(=O)C2CCCN(S(=O)(=O)c3cnc[nH]3)C2)n1 (centres undefined)	29.1 µM [falling, single point]	
CCc1ccc(NC(=O)C(=O)NCCc2sc3nc(-c4ccc(OC)cc4)nn3c2C)cc1	0.0891 µM [falling, full curve, poor fit]	
Cc1ccc(/C(O)=C/c2nc3ccccc3oc2=O)cc1	7.08 µM [falling, full curve, poor fit]	
COc1ccc(C2N(c3cc(Cl)ccc3OC)C(=O)C3CCCN32)c(OC)c1 (centres undefined)	0.103 µM [falling, full curve, poor fit]	
O=C(Nc1cccc(-c2ccc(N3CCCCC3)nn2)c1)c1ccco1	23.1 µM [falling, single point]	
COC(=O)c1[nH]c2ccc(F)cc2c1NC(=O)CCN1CCN(Cc2ccc3c(c2)OCO3)CC1	15.8 µM [rising, partial curve, poor fit]	
O=C(Cc1ccccc1)c1ccc(Cl)cc1	11.2 µM [rising, partial curve, poor fit]	
Cc1csc(-c2cnn(-c3ccccc3)c2NC(=O)c2cccc(C(F)(F)F)c2)n1	23.1 µM [falling, single point]	
O=C(Nc1cccc(NC(=O)c2ccccc2Cl)c1)c1cccs1	17.8 µM [falling, single point]	
Cc1nonc1NC(=O)CSc1nc2c(C)cccc2cc1C#N	8.91 µM [falling, partial curve]	
COc1cccc(NC(=O)c2ccccc2NS(C)(=O)=O)c1	0.00461 µM [falling, full curve, poor fit]	
C[C@@H]1C[C@H]2[C@@H]3CCC4=CC(=O)C=C[C@]4(C)[C@@]3(F)[C@@H](O)C[C@]2(C)[C@@]1(O)C(=O)COP(=O)(O)O		0.103 µM [falling, full curve, poor fit]
CNc1nc(C)c(C(=O)OCc2ccccc2)s1	16.4 µM [rising, partial curve, poor fit]	18.4 µM [falling, partial curve, poor fit]

Structure (SMILES)	AC50 [1]	AC50 [2]
Nc1ccc(Oc2ccc(F)cc2)nc1	12.6 µM [rising, partial curve, poor fit]	
O=C1NCCCCC1NS(=O)(=O)c1cccc(C(F)(F)F)c1 (centres undefined)	35.5 µM [rising, single point]	
CCc1cccc(CC)c1NC(=O)COC(=O)c1ccccc1-c1nc2ccccc2s1	4.11 µM [rising, single point]	
CCCCN(C(=O)c1oc2ccc(OCC)cc2c1C)c1c(N)n(CCCC)c(=O)[nH]c1=O	29.1 µM [rising, single point]	
CCOC(=O)[C@H](CCc1ccccc1)N[C@@H](C)C(=O)N1C(C(=O)O)C[C@@H]2CCC[C@@H]21 (some centres undefined)	0.231 µM [rising, full curve, poor fit]	
O=C(CSc1nc2ccccc2s1)Nc1ccc(Cl)c(C(=O)O)c1	22.4 µM [falling, single point]	
O=C(N/N=C/c1cccs1)c1cccc(NC(=O)c2ccccc2Cl)c1	23.1 µM [falling, partial curve, poor fit]	
O=C(CN1C(=O)NC2(CCCC2)C1=O)OCc1ccc(Cl)cc1Cl	29.1 µM [rising, single point]	
Cc1cc2cc(CNC(=O)COc3ccccc3)ccc2n1C	7.94 µM [rising, partial curve, poor fit]	
Cc1ccc(S(=O)(=O)N(CC(=O)O)Cc2ccccc2F)cc1	6.51 µM [falling, single point]	6.51 µM [rising, partial curve, poor fit]
CCC1(C)Cc2ccccc2-c2nc3n(c(=O)c21)CCCCC3 (centres undefined)	6.51 µM [falling, single point]	
O=C(COC(=O)c1ccccc1Nc1cccc(C(F)(F)F)c1)NCc1ccco1	2.82 µM [rising, single point]	
Cc1ccc(N2C(=O)NC(NC(=O)C3CC3)(C(F)(F)F)C2=O)cc1 (centres undefined)	29.1 µM [rising, single point]	
Cc1ccccc1-c1nc(P(=O)(c2ccccc2)c2ccccc2)c(N2CCOCC2)o1	0.891 µM [falling, partial curve, poor fit]	
CNC(=S)N1N=C(c2ccc(C)cc2)CC1c1ccc(OC)c(OC)c1 (centres undefined)	29.1 µM [rising, single point]	
COc1cccc(OC)c1C(=O)NC(=S)Nc1ccc(S(=O)(=O)Nc2nccs2)cc1	22.4 µM [falling, partial curve]	
CCCC(C)C(=O)Nc1nc(C)c(-c2csc(Nc3cc(OC)ccc3OC)n2)s1 (centres undefined)	1.41 µM [falling, full curve, poor fit]	
Cc1ccc(O)c(NC(=O)c2onc(C)c2Cl)c1	12.6 µM [rising, partial curve, poor fit]	
CC(=O)Nc1cccc(OCC(=O)Nc2ccccc2)c1	32.6 µM [falling, single point]	
CCCSc1nc(NCc2ccco2)c2c3c(sc2n1)COC(C)(CC)C3 (centres undefined)	1.12 µM [falling, full curve, poor fit]	
O=C(c1cccc2nccnc12)N1CCCC(Nc2ccc(F)c(F)c2)C1 (centres undefined)	35.5 µM [rising, single point]	

Molecules shown so far that have fluorine, in the order listed:
Structure (SMILES)	AC50 [1]	AC50 [2]
C/C(=N\NC(=O)c1ccccc1)c1ccccc1F	8.91 µM [falling, partial curve]	
COC(=O)c1[nH]c2ccc(F)cc2c1NC(=O)CCN1CCN(Cc2ccc3c(c2)OCO3)CC1	15.8 µM [rising, partial curve, poor fit]	
Cc1csc(-c2cnn(-c3ccccc3)c2NC(=O)c2cccc(C(F)(F)F)c2)n1	23.1 µM [falling, single point]	
C[C@@H]1C[C@H]2[C@@H]3CCC4=CC(=O)C=C[C@]4(C)[C@@]3(F)[C@@H](O)C[C@]2(C)[C@@]1(O)C(=O)COP(=O)(O)O		0.103 µM [falling, full curve, poor fit]
Nc1ccc(Oc2ccc(F)cc2)nc1	12.6 µM [rising, partial curve, poor fit]	
O=C1NCCCCC1NS(=O)(=O)c1cccc(C(F)(F)F)c1 (centres undefined)	35.5 µM [rising, single point]	
Cc1ccc(S(=O)(=O)N(CC(=O)O)Cc2ccccc2F)cc1	6.51 µM [falling, single point]	6.51 µM [rising, partial curve, poor fit]
O=C(COC(=O)c1ccccc1Nc1cccc(C(F)(F)F)c1)NCc1ccco1	2.82 µM [rising, single point]	
Cc1ccc(N2C(=O)NC(NC(=O)C3CC3)(C(F)(F)F)C2=O)cc1 (centres undefined)	29.1 µM [rising, single point]	
O=C(c1cccc2nccnc12)N1CCCC(Nc2ccc(F)c(F)c2)C1 (centres undefined)	35.5 µM [rising, single point]	

Carrying on.

Structure (SMILES)	AC50 [1]	AC50 [2]
CC(=O)C1=C(C)NC(SCC(=O)c2ccc(F)cc2)=C(C#N)C1CC(C)C (centres undefined)	0.731 µM [rising, partial curve]	
Cc1cc(C)n2nc(C(=O)N/N=C/c3ccccc3C)nc2n1	11.2 µM [falling, partial curve, poor fit]	
CCN(C(=O)C1CCCN(c2ncnc3c2nc2n3CCCCC2)C1)c1cccc(Cl)c1 (centres undefined)	35.5 µM [falling, single point]	
CCCN1CCN(CCCNC(=O)Cn2nc(-c3ccc(Cl)cc3)ccc2=O)CC1	23.1 µM [rising, partial curve, poor fit]	
Cc1c(CCNC(=O)C(C)(C)C)sc2nc(-c3ccc(F)cc3)nn12	35.5 µM [falling, single point]	
Cc1onc(-c2c(F)cccc2Cl)c1C(=O)Nc1nnc(C(F)(F)F)s1	3.55 µM [rising, single point]	
O=C(NCc1ccco1)C1CCN(C(=O)c2cc3sccc3n2Cc2ccc(F)cc2)CC1	29.1 µM [falling, single point]	
CC(C)(C)[C@@H]1C=C(C(=O)N2CCN(Cc3ccc4c(c3)OCO4)CC2)O[C@H](OCc2ccc(CO)cc2)C1	3.55 µM [rising, single point]	
CC(C)CNC(=S)NC(=O)c1ccc(F)cc1	20.6 µM [rising, partial curve, poor fit]	
COCCN(C(=O)C1CC1)c1nnc(-c2ccc(C)cc2)s1	7.94 µM [rising, partial curve, poor fit]	
CN(CC(=O)Nc1cccc(F)c1)C(=O)c1ccc2c(c1)CC(c1ccccc1)OC2=O (centres undefined)	23.1 µM [falling, single point]	
OCCNc1c2ccccc2nc2c(F)c(F)c(F)c(F)c12	11.6 µM [falling, partial curve, poor fit]	
COc1ccc(OC)c(N(CC(=O)N2CCCC2)S(C)(=O)=O)c1	1.58 µM [rising, full curve, poor fit]	
COc1cc(/C=C2/SC(=S)N(c3ccccc3)C2=O)ccc1Oc1nc(N2CCOCC2)nc(N2CCOCC2)n1	7.31 µM [rising, partial curve, poor fit]	
COc1cc2c(cc1OC)C(C1(O)CCCCC1)NCC2 (centres undefined)	5.62 µM [falling, single point]	2.82 µM [rising, single point]
CC(C)c1ccc(-n2c(-c3ccccc3)c[n+]3c2CCc2ccccc2-3)cc1	11.2 µM [falling, partial curve, poor fit]	
O=C(CCCCn1c(=O)[nH]c2ccsc2c1=O)NCC1CCCO1 (centres undefined)	25.9 µM [rising, partial curve, poor fit]	
CC(=O)Nc1cccc(-c2nc3ccc(NC(C)=O)cc3s2)c1	12.6 µM [falling, single point]	
O=C(CCN1C(=O)/C(=C/c2ccc(F)cc2)SC1=S)NCCCn1ccnc1	17.8 µM [falling, partial curve, poor fit]	

Quoted from the listing:
Value for COc1cc(/C=C2/SC(=S)N(c3ccccc3)C2=O)ccc1Oc1nc(N2CCOCC2)nc(N2CCOCC2)n1 under AC50 [1]: 7.31 µM [rising, partial curve, poor fit]
Value for CC(C)CNC(=S)NC(=O)c1ccc(F)cc1 under AC50 [1]: 20.6 µM [rising, partial curve, poor fit]
